This experiment has as its target ATP1A3 (Na+/K+-ATPase alpha 3 subunit) (human (endogenous in U87)) (UniProt P13637). The experiment in a line: affinity purification with mass spectrometry; immunoprecipitation-mass spectrometry (IP-MS) of ATP1A3 complexes from whole-cell lysates of U87 cells.

No constants are given. Whether binding was seen depends on the method and setting. Binding seen in cells or lysates may run through a third protein. A yes stands for co-enrichment or nearness to the bait. Other partners may have been found.

For “aquaporin-4 (AQP4) (from UniProt P55087 1-323)”, the binding entry is “binds”.

The record behind these values is PMC6985666.
